Results on 37 compounds are retold here after patent publication US5446157A, “Boron difluoride compounds useful in photodynamic therapy and production of laser light” (priority 1993, dated 1995).

The conditions of series [1]: cited from earlier work.
Series [2] in a line: Use as laser dye: lasing threshold and wavelength range in 10 mm flashlamp D-1100 dye laser (Phas-R Model D-1100). To be noted: 60 mg in 250 ml of methanol.
The nature of series [3]: Laser characteristics of pyrromethene-BF2 complexes under flashlamp excitation (Table IV). To be noted: DMA/MeOH; for λL: conc. × 10^4 M: I 1.5, II 2, III 2, Rhodamine 590 0.5.
The nature of series [4]: Laser activity (λlas, relative efficiency RE). To be noted: for RE (relative efficiency): 100 assigned to R-6G.
Series [5] in a line: Continuous wave operation with argon ion pump laser: power efficiency. To be noted: CW, 5 watts all lines 457.9-514.5 nm.
[6] abbreviates: 2 × 10^-4 M in ethanol, Ref [2] / Shah et al. 1990.

Entries after “also recorded” stand apart in the source; their conditions may differ. Counter-ions that a name gives are not always drawn. Like-named read-outs stand apart in the source and are kept apart here.

As for `CCN1C(=CC=Cc2oc3ccccc3[n+]2CC)Oc2ccccc21` [Compound 3a, reference compound], the λlas in series [1] (literature or known dye) is 541 nm.

Turning to `CN1C(=CC=CC=CC=Cc2oc3ccccc3[n+]2C)Oc2ccccc21` [Compound 3b, reference compound], the λlas in series [1] (literature or known dye) is given as 800 nm. As for `CC1=CC(C)=[N+]2C1=C(C)c1c(C)cc(C)n1[B-]2(F)F` [Compound 7a, 4,4-difluoro-1,3,5,7,8-pentamethyl-4-bora-3a,4a-diaza-s-indacene], in series [2], the lasing threshold came to 9.5 kV and the lasing wavelength range is on record as 532-565 nm. In series [1] (setting [6]), the λlas is 542 nm. In addition, in series [3], the Vth is 8-10 kV, the “Eo (V = 18 kV)” value is reported as 85 mJ and the λL is listed as 542 nm. With `CCOC(=O)C1=C(C)C2=C(C#N)c3c(C)c(C(=O)OCC)c(C)n3[B-](F)(F)[N+]2=C1C` [Compound 7aa, diethyl 1,3,5,7-tetramethyl-8-cyanopyrromethene-2,6-dicarboxylate-BF2 complex], in series [4] (2 × 10^-4 M in p-dioxan), the λlas was 617 nm. In series [4], the “RE (relative efficiency)” value was determined as 55. Besides, the “power efficiency relative to rhodamine-B” value in series [4] (λlas 617 nm vs 611 nm) is listed as “nearly twice”.

For the compound `CC1=C(C)C(C)=[N+]2C1=C(C)c1c(C)c(C)c(C)n1[B-]2(F)F` [Compound 7b], the λlas in series [1] (setting [6]) was 573 nm. Besides, the “RE (relative efficiency)” value in series [1] (100 assigned to R-6G, Ref [2]) is reported as 65. Compound `CCC1=C(C)C2=C(C#N)c3c(C)c(CC)c(C)n3[B-](F)(F)[N+]2=C1C` [Compound 7bb, 1,3,5,7-Tetramethyl-2,6-diethyl-8-cyanopyrromethene-BF2 complex] came in with a λlas in series [4] (2 × 10^-4 M in p-dioxan, Phase-R DL-1100 dye laser with DL-5Y coaxial flashlamp) of 670 nm. In series [4] (2 × 10^-4 M in ethanol), `CCCC1=C(C)C2=C(C)c3c(C)c(CCC)c(C)n3[B-](F)(F)[N+]2=C1C` [Compound 7d, 2,6-Di-n-propyl-1,3,5,7,8-pentamethylpyrromethene-BF2 complex] had a λlas of 578 nm. The “RE (relative efficiency)” value in series [4] amounted to 85. The compound `CCCCC1=C(C)C2=C(C)c3c(C)c(CCCC)c(C)n3[B-](F)(F)[N+]2=C1C` [Compound 7e] showed a λlas in series [4] (2 × 10^-4 M in ethanol) of 580 nm. `CC1=C(C(C)C)C(C)=[N+]2C1=C(C)c1c(C)c(C(C)C)c(C)n1[B-]2(F)F` [Compound 7f] came in with a λlas in series [4] (2 × 10^-4 M in ethanol) of 577 nm. Also, in series [4], the “RE (relative efficiency)” value was found to be 45.

The compound `CC1=C(C(C)(C)C)C(C)=[N+]2C1=C(C)c1c(C)c(C(C)(C)C)c(C)n1[B-]2(F)F` [Compound 7g] came in with a λlas in series [4] (2 × 10^-4 M in ethanol) of 597 nm. Besides, the “RE (relative efficiency)” value in series [4] stood at 50. `CC1=C2C=C3CCCCC3=[N+]2[B-](F)(F)n2c1cc1c2CCCC1` [Compound 7h, 2,3,6,7-bistetramethylene-8-methylpyrromethene-BF2 complex] gave a λlas in series [4] (2 × 10^-4 M in ethanol) of 589 nm. On the same count and under the same terms, as for `CC1=C2CCCCC2=[N+]2C1=C(C)c1c(C)c3c(n1[B-]2(F)F)CCCC3` [Compound 7i], the figure is 582 nm. In the case of `CC1=C2C3=C(CCC3)C(C)=[N+]2[B-](F)(F)n2c(C)c3c(c21)CCC3` [Compound 7j, 1,2,6,7-bistrimethylene-3,5,8-trimethylpyrromethene-BF2 complex], the λlas in series [4] (2 × 10^-4 M in ethanol) came out at 560 nm. Also, the “RE (relative efficiency)” value in series [4] is on record as 20. Taken in the same sequence, the figures for `CCC1=C(CC)C(C)=[N+]2C1=C(C)c1c(CC)c(CC)c(C)n1[B-]2(F)F` [Compound 7k, 1,2,6,7-tetraethyl-3,5,8-trimethylpyrromethene BF2 complex] were 582 nm and 75. Take `CC1=C(c2ccccc2)C(C)=[N+]2C1=C(C)c1c(C)c(-c3ccccc3)c(C)n1[B-]2(F)F` [Compound 7l]: in series [4], the “laser activity” value was “Low lasing activity” and the “RE (relative efficiency)” value was determined as 20. In addition, the λlas in series [4] (2 × 10^-4 M in ethanol) is listed as 582 nm.

With `CC(=O)NC1=C(C)C2=C(C)c3c(C)c(NC(C)=O)c(C)n3[B-](F)(F)[N+]2=C1C` [Compound 7m], the λlas in series [4] (2 × 10^-4 M in trifluoroethanol) turned out to be 566 nm. Moreover, the “RE (relative efficiency)” value in series [4] is 5. `COC1=C(C)C(C)=[N+]2C1=C(C)c1c(OC)c(C)c(C)n1[B-]2(F)F` [Compound 7n, 1,7-dimethoxy-2,3,5,6,8-pentamethylpyrromethene-BF2 complex] gave a λlas in series [4] (2 × 10^-4 M in ethanol) of 540 nm. Also, in series [4], the “RE (relative efficiency)” value came to 30. Taken in the same sequence, the figures for `CCC1=C(C)C2=C(CC)c3c(C)c(CC)c(C)n3[B-](F)(F)[N+]2=C1C` [Compound 7o, 1,3,5,7-tetramethyl-2,6,8-triethylpyrromethene-BF2 complex] were 571 nm and 75. Regarding `CCC1=C(C)C2=C(C(C)C)c3c(C)c(CC)c(C)n3[B-](F)(F)[N+]2=C1C` [Compound 7p, 1,3,5,7-tetramethyl-2,6-diethyl-8-isopropylpyrromethene-BF2 complex], the “laser activity” value in series [4] is “loss of laser activity; also recorded: absence of fluorescence and laser activity”. On the same count and under the same terms, as for `CCC1=C(C)C2=C(C3CCCCC3)c3c(C)c(CC)c(C)n3[B-](F)(F)[N+]2=C1C` [Compound 7q, 1,3,5,7-tetramethyl-2,6-diethyl-8-cyclohexylpyrromethene-BF2 complex], the entry is “no laser activity; also recorded: lack of laser activity”. In series [4] (2 × 10^-4 M in ethanol), `CCC1=C(C)C2=C(COC(C)=O)c3c(C)c(CC)c(C)n3[B-](F)(F)[N+]2=C1C` [Compound 7r] had a λlas of 605 nm. Further, the “RE (relative efficiency)” value in series [4] is listed as 30. Taken in the same sequence, the figures for `COc1ccc(C2=C3C(C)=CC(C)=[N+]3[B-](F)(F)n3c(C)cc(C)c32)cc1` [Compound 7t, 1,3,5,7-tetramethyl-8-p-methoxyphenylpyrromethene-BF2 complex] were 547 nm and 50. On to `CCC1=C(c2ccccc2)C2=Cc3c(-c4ccccc4)c(CC)c(C)n3[B-](F)(F)[N+]2=C1C` [Compound 7u], for which, in series [4], the “laser activity” value is listed as “Low lasing activity” and the “RE (relative efficiency)” value is recorded as 10. In series [4] (2 × 10^-4 M in ethanol), this compound came in with a λlas of 582 nm. With `CC1=[N+]2C(=Cc3c(-c4ccccc4)c(-c4ccccc4)c(C)n3[B-]2(F)F)C(c2ccccc2)=C1c1ccccc1` [Compound 7v, 1,2,6,7-tetraphenyl-3,5-dimethylpyrromethene-BF2 complex], the “laser activity” value in series [4] is given as “absence of lasing activity”. For `CC1=[N+]2C(=Cc3c(-c4ccccc4)cc(C)n3[B-]2(F)F)C(c2ccccc2)=C1` [Compound 7w, 1,7-diphenyl-3,5-dimethylpyrromethene-BF2 complex], in series [4], the “laser activity” value is on record as “Low lasing activity” and the “RE (relative efficiency)” value is 5. Also, the λlas in series [4] (2 × 10^-4 M in ethanol) amounted to 580 nm.

The compound `CC1=C(C(C)(C)C)C(C)=[N+]2C1=Cc1c(C)c(C(C)(C)C)c(C)n1[B-]2(F)F` [Compound 7x, 1,3,5,7-tetramethyl-2,6-di-tert-butylpyrromethene-BF2 complex] came in with a λlas in series [4] (2 × 10^-4 M in ethanol) of 580 nm. Besides, in series [4], the “RE (relative efficiency)” value turned out to be 30. The matching figures for `CCC1=C(CC)C(C)=[N+]2C1=Cc1c(CC)c(CC)c(C)n1[B-]2(F)F` [Compound 7y, 1,2,6,7-tetraethyl-3,5-dimethylpyrromethene-BF2 complex]: 580 nm and 40.

As for `CC1=C(C)C(C)=[N+]2C1=Cc1c(C)c(C)c(C)n1[B-]2(F)F` [Compound 7z, 1,2,3,5,6,7-hexamethylpyrromethene-BF2 complex], the λlas in series [4] (2 × 10^-4 M in ethanol) is on record as 570 nm. Besides, in series [4], the “RE (relative efficiency)” value was 30. As to `CC1=C(S(=O)(=O)O)C(C)=[N+]2C1=C(C)c1c(C)c(S(=O)(=O)O)c(C)n1[B-]2(F)F` [Compound 16, 1,3,5,7,8-pentamethylpyrromethene-2,6-disulfonic acid-BF2 complex], the “RE (relative efficiency)” value in series [4] was 95. With `CCC1=C2C(C)=C(S(=O)(=O)O)C(C)=[N+]2[B-](F)(F)n2c(C)c(S(=O)(=O)O)c(C)c21` [Compound 17, 1,3,5,7-tetramethyl-8-ethylpyrromethene-2,6-disulfonic acid-BF2 complex], in series [4], the “RE (relative efficiency)” value is 50. Same read-out and setting: as for `COS(=O)(=O)C1=C(C)C2=C(C)c3c(C)c(S(=O)(=O)OC)c(C)n3[B-](F)(F)[N+]2=C1C` [Compound 18], the figure is 35; as for `CCOC(=O)C1=C(C)C2=C(CC)c3c(C)c(C(=O)OCC)c(C)n3[B-](F)(F)[N+]2=C1C` [Compound 19], 50. On to `CCN=c1cc2oc3cc(NCC)c(C)cc3c(-c3ccccc3C(=O)OCC)c-2cc1C` [Compound R-6G, reference compound], for which the “power efficiency / power output” value in series [5] was 32%. Regarding `CCC1=C2C(C)=CC(C)=[N+]2[B-](F)(F)n2c(C)cc(C)c21` [III, 4,4-difluoro-1,3,5,7-tetramethyl-8-ethyl-4-bora-3a,4a-diaza-s-indacene], in series [3], the Vth is 10 kV, the “Eo (V = 18 kV)” value amounted to 90 mJ and the λL was found to be 540 nm. Taken in the same sequence, the figures for `CCN=c1cc2oc3cc(NCC)c(C)cc3c(-c3ccccc3C(=O)OCC)c-2cc1C` [Rhodamine 590, reference compound] were 8 kV, 100 mJ and 578 nm.

For `F[B-]1(F)N2C=CC=CC2=Nc2cccc[n+]21` [boratriazinium salt, reference compound], in series [1] (literature or known dye), the λlas was 420 nm. `CCN(CC)c1ccc2c(-c3ccccc3C(=O)O)c3ccc(=[N+](CC)CC)cc-3oc2c1` [rhodamine-B, reference compound]: in series [4] (comparator of dye 7aa, solvent not stated), the λlas is on record as 611 nm.
